Test results taken from PubChem BioAssay AID504327 (National Center for Advancing Translational Sciences (NCATS), 2011).
About 820 (0.21%) of roughly 390,000 compounds were called active. Inconclusive means that the source gave no clear call. Such entries were picked first, then a sample of the others. Calls come from the whole dose curve; as a rule, active = well fitted inhibition curve with a large enough effect; inconclusive = small, poorly fitted or top-dose-only effect, or another doubt; inactive = no such curve, though single readings can be large or run the other way. A potency beside an inconclusive call is a rough fit, not a confirmed value.

Chains of the proteins cited; added tags and fusions are not shown.
UniProt Q92830, whole entry, looked up: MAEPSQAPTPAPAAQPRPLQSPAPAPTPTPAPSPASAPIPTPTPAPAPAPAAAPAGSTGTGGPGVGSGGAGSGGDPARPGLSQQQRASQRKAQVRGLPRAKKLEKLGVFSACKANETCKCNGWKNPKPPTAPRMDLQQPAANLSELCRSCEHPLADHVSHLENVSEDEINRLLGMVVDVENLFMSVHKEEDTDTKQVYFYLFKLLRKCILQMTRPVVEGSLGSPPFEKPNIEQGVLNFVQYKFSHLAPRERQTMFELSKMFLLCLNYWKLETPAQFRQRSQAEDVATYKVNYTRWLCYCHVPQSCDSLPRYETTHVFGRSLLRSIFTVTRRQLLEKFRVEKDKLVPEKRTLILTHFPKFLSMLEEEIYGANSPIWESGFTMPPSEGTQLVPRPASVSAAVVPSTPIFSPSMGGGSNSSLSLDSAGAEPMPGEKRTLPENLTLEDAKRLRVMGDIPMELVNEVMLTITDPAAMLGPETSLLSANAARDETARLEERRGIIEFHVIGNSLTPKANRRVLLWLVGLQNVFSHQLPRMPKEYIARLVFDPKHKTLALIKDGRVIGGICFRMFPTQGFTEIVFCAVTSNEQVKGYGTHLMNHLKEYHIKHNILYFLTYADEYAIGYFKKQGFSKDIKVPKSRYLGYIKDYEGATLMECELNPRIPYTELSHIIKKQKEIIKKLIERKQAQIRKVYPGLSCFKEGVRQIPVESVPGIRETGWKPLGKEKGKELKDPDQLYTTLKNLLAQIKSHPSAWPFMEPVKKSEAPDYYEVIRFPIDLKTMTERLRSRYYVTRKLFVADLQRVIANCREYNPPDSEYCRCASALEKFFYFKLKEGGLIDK

Target: Histone acetyltransferase KAT2A (Homo sapiens) (UniProt Q92830)
Assay: qHTS Assay for Inhibitors of GCN5L2
Settings: GCN5L2 HAT assay, ThioGlo1 CoA-SH fluorescence; activity change, negative = inhibition: at 58.9 µM (top of the series) unless noted
How it was run: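 Titration-based screen in which CoA formation is detected via maleimide probe ThioGlo1 (50uM) turning fluorescent on thiol reaction; substrates H3(1-25) 75uM and acetyl-CoA 70uM, GCN5L2 20nM, 20 min incubation at room temperature.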
% is set by controls: 0 for no effect and ±100 for the full control effect; potency is the fitted concentration of half-maximal effect.

| SMILES | activity change, negative = inhibition | Potency |
| --- | --- | --- |
| COc1cc(/C=C(\C#N)c2nc3ccccc3[nH]2)c([N+](=O)[O-])cc1OCc1ccccc1 | inactive: -8.91% | – |
| COc1ccc([C@@H]2Sc3ccccc3N(CCN(C)C)C(=O)[C@@H]2OC(C)=O)cc1 | – | inconclusive: 39.8 µM [inhibitor, single point] |
| O=c1c(-c2ccc(F)cc2)nc2cnc(N3CCOCC3)nc2n1-c1ccccc1 | – | inconclusive: 35.5 µM [inhibitor, single point] |
| COc1cc(NC(=O)Cn2cnc3c(nc4n3CCCCC4)c2=O)cc(OC)c1OC | – | inconclusive: 20 µM [inhibitor, partial curve] |
| CCN(CC)Cc1c(O)ccc2c(=O)c(Oc3ccccc3OC)coc12 | – | inconclusive: 17.8 µM [inhibitor, partial curve] |
| CC(=O)c1cnc2nc(SCc3ccc(C)cc3)nn2c1C | inactive: -3.84% | – |
| Cc1cccc(C)c1OCC(O)CNC(C)C (centres undefined) | inconclusive: -85.7% [inhibitor] [at 0.501 µM] | – |
| O=C(COC(=O)c1ccc(S(=O)(=O)N2CCCC2)cc1)NCc1ccc(Cl)cc1 | – | inconclusive: 39.8 µM [inhibitor, single point] |
| COc1ccc(S(=O)(=O)Cc2ccc(C(=O)N3CCN(c4ccccc4F)CC3)o2)cc1 | inactive: -4.6% | – |
| CCOC(=O)CNC(=O)CCc1nnc2ccc(N3CCC(C)CC3)nn12 | – | inconclusive: 2.82 µM [inhibitor, partial curve] |
| Cc1noc(NS(=O)(=O)c2ccc(NC(=O)c3cc4ccccc4o3)cc2)c1C | – | inconclusive: 39.8 µM [inhibitor, single point] |
| Cc1nc2c(C(=O)NCc3ccc4c(c3)OCO4)c[nH]n2c(=O)c1Cc1ccccc1F | – | inconclusive: 39.8 µM [inhibitor, single point] |
| O=C(Oc1nsnc1N1CCOCC1)N(c1ccccc1)c1ccccc1 | inactive: -5.45% | – |
| COc1ccccc1-c1c(NC(=O)c2ccco2)n(C)c2ccccc2c1=O | – | inconclusive: 2.51 µM [inhibitor, partial curve] |
| CCOC(=O)C1=C(COC(=O)c2ccccc2OC(F)F)NC(=O)NC1C (centres undefined) | – | inconclusive: 631 µM [inhibitor, partial curve, poor fit] |
| COc1ccc(CN2CCNC(=O)C2CC(=O)NC2CCOCC2)cc1C (centres undefined) | – | inconclusive: 1.12 µM [inhibitor, full curve, poor fit] |
| O=C(c1ccc(-n2c(SCc3cc(F)ccc3F)nc3ccccc3c2=O)cc1)N1CCOCC1 | inactive: -1.91% | – |
| Cc1ccc2c(c1)cc(C)c1nnc(SCC(=O)NCc3ccco3)n12 | inactive: -3.77% | – |
| Nc1ccc(-c2ccc(N)c(C(=O)O)c2)cc1C(=O)O | – | inconclusive: 0.794 µM [inhibitor, full curve, poor fit] |
| O=S(=O)(NCc1cccs1)c1cccc2cccnc12 | – | active: 3.98 µM |
| O=C(O)C1CSC(c2ccncc2)N1 (centres undefined) | inactive: 0.153% | – |
| COc1cc(N)c(Cl)cc1C(=O)CCC1CCN(CCNS(C)(=O)=O)CC1 | – | inconclusive: 20 µM [inhibitor, single point] |

| SMILES | activity change, negative = inhibition | Potency |
| --- | --- | --- |
| CCOc1ccc(NC(=O)CCC(=O)c2ccc(F)cc2)cc1 | – | inconclusive: 5.62 µM [inhibitor, single point] |
| COc1ccc(CNC(=O)CNC(c2ccccc2)c2ccccc2)cc1OC | inactive: -2.42% | – |
| O=C(COC(=O)c1ccc(O)cc1)c1ccc2c(c1)OCCO2 | – | inconclusive: 3.16 µM [inhibitor, single point] |
| C#CCOCCOCCOCCNc1nc(N2CCN(C(=O)CCCCCCCCCCNC(=O)Cn3cc(C[C@@H](C)O)nn3)CC2)nc(N2CCN(C(=O)CCCCCCCCCCNC(=O)[C@H](CCCN=C(N)N)n3cc(C[C@@H](C)CC)nn3)CC2)n1 | inactive: -9.57% | – |
| COc1ccc(-c2cc3c(=O)n(CC(=O)N4CCCC4)ncn3n2)cc1 | – | inconclusive: 0.447 µM [inhibitor, full curve, poor fit] |
| COc1ccccc1N1CCN(c2ncnc3onc(C)c23)CC1 | inactive: 3.58% | – |
| CCOC(=O)N1CCC(N2C(=O)c3ccccc3C2Nc2ccc3c(C)cc(=O)oc3c2)CC1 (centres undefined) | – | inconclusive: 25.1 µM [inhibitor, single point] |
| CC(C)c1ccc2[nH]c(O)c(N=NC(=O)c3cccc(S(=O)(=O)Nc4cccc(Cl)c4)c3)c2c1 | – | inconclusive: 12.6 µM [inhibitor, partial curve, poor fit] |
| Cc1cccc2sc(NC(=O)CN3C(=O)c4ccccc4C3=O)nc12 | – | inconclusive: 5.62 µM [inhibitor, single point] |
| O=C1[C@H]2[C@@H](/C=C/c3ccccc3)N3C(=O)CN(CCO)C(=O)[C@@]3(Cc3ccccc3)[C@H]2C(=O)N1c1ccccc1 | – | inconclusive: 8.91 µM [inhibitor, single point] |
| Cc1c(C(=O)NNc2cc(=O)n(C)c(=O)n2C)cccc1[N+](=O)[O-] | inactive: 0.477% | – |
| O=C1CC(c2ccco2)CC(O)=C1C=Nc1cc(Cl)ccc1O (centres undefined) | inactive: -17.8% | – |
| Cc1ccnc(NC(=O)c2cccc(S(=O)(=O)N3CCCC3)c2)c1 | – | inconclusive: 39.8 µM [inhibitor, partial curve] |
| CCCCN(CCCC)Cc1ccc(N)cc1 | – | inconclusive: 1.78 µM [inhibitor, full curve, poor fit] |
| CN(C1CCCCC1)S(=O)(=O)c1ccc(NC(=O)C2CCCCC2)cc1 | inactive: -6.81% | – |
| CC(C)(C)C(=O)CSc1ncnc2sc3c(c12)CCC3 | inactive: -7.66% | – |
| COC(=O)CC1C(=O)NCCN1C(=O)Nc1ccc(Cl)cc1 (centres undefined) | – | inconclusive: 31.6 µM [inhibitor, single point] |
| O=C1C=C(c2ccc(-c3ccccc3)cc2)C[C@@H](c2ccc3c(c2)OCO3)C1 | – | inconclusive: 31.6 µM [inhibitor, single point] |
| Cc1c(C(=O)NCc2nnc(-c3ccccc3)o2)oc2c(F)cccc12 | inactive: -0.137% | – |
| CC(C)(C)OC(=O)N1CCC[C@H]1C(=O)NCc1ccc(Cl)cc1Cl | inactive: -15.7% | – |
| COc1ccc(CCNS(=O)(=O)c2cccs2)cc1 | – | inconclusive: 0.501 µM [inhibitor, single point] |
| Cn1ccnc1SCc1ccc([N+](=O)[O-])cc1 | – | active: 0.794 µM |

16 structures already listed, ordered by number of heavy atoms, falling:

| SMILES | activity change, negative = inhibition | Potency |
| --- | --- | --- |
| C#CCOCCOCCOCCNc1nc(N2CCN(C(=O)CCCCCCCCCCNC(=O)Cn3cc(C[C@@H](C)O)nn3)CC2)nc(N2CCN(C(=O)CCCCCCCCCCNC(=O)[C@H](CCCN=C(N)N)n3cc(C[C@@H](C)CC)nn3)CC2)n1 | inactive: -9.57% | – |
| O=C1[C@H]2[C@@H](/C=C/c3ccccc3)N3C(=O)CN(CCO)C(=O)[C@@]3(Cc3ccccc3)[C@H]2C(=O)N1c1ccccc1 | – | inconclusive: 8.91 µM [inhibitor, single point] |
| CCOC(=O)N1CCC(N2C(=O)c3ccccc3C2Nc2ccc3c(C)cc(=O)oc3c2)CC1 (centres undefined) | – | inconclusive: 25.1 µM [inhibitor, single point] |
| COc1cc(/C=C(\C#N)c2nc3ccccc3[nH]2)c([N+](=O)[O-])cc1OCc1ccccc1 | inactive: -8.91% | – |
| COc1cc(NC(=O)Cn2cnc3c(nc4n3CCCCC4)c2=O)cc(OC)c1OC | – | inconclusive: 20 µM [inhibitor, partial curve] |
| O=c1c(-c2ccc(F)cc2)nc2cnc(N3CCOCC3)nc2n1-c1ccccc1 | – | inconclusive: 35.5 µM [inhibitor, single point] |
| O=C(COC(=O)c1ccc(S(=O)(=O)N2CCCC2)cc1)NCc1ccc(Cl)cc1 | – | inconclusive: 39.8 µM [inhibitor, single point] |
| COc1ccc(CN2CCNC(=O)C2CC(=O)NC2CCOCC2)cc1C (centres undefined) | – | inconclusive: 1.12 µM [inhibitor, full curve, poor fit] |
| Cc1ccc2c(c1)cc(C)c1nnc(SCC(=O)NCc3ccco3)n12 | inactive: -3.77% | – |
| Cc1ccnc(NC(=O)c2cccc(S(=O)(=O)N3CCCC3)c2)c1 | – | inconclusive: 39.8 µM [inhibitor, partial curve] |
| CCOc1ccc(NC(=O)CCC(=O)c2ccc(F)cc2)cc1 | – | inconclusive: 5.62 µM [inhibitor, single point] |
| COC(=O)CC1C(=O)NCCN1C(=O)Nc1ccc(Cl)cc1 (centres undefined) | – | inconclusive: 31.6 µM [inhibitor, single point] |
| Nc1ccc(-c2ccc(N)c(C(=O)O)c2)cc1C(=O)O | – | inconclusive: 0.794 µM [inhibitor, full curve, poor fit] |
| COc1ccc(CCNS(=O)(=O)c2cccs2)cc1 | – | inconclusive: 0.501 µM [inhibitor, single point] |
| Cn1ccnc1SCc1ccc([N+](=O)[O-])cc1 | – | active: 0.794 µM |
| O=C(O)C1CSC(c2ccncc2)N1 (centres undefined) | inactive: 0.153% | – |

The results go on:

| SMILES | activity change, negative = inhibition | Potency |
| --- | --- | --- |
| Cc1ccc(Cl)cc1N1CCN(C(=O)C(C)n2ncn3cccc3c2=O)CC1 (centres undefined) | – | inconclusive: 2 µM [inhibitor, partial curve, poor fit] |
| Cc1cccc(C(=O)NNC(=O)c2ccc(Cl)cc2)c1O | inactive: -1.89% | – |
| O=C(CSc1nc(-c2ccccc2)cc(C(F)(F)F)n1)c1cccc([N+](=O)[O-])c1 | – | inconclusive: 22.4 µM [inhibitor, single point] |
| COc1ccc(OCC2c3cc(OC)c(OC)cc3CCN2C(=O)C(C)C)cc1 (centres undefined) | inactive: -7.17% | – |
| CCCn1ncc(OC)c(Cl)c1=O | – | inconclusive: 3.16 µM [inhibitor, partial curve] |
| CC[C@@H](C)[C@@H](C(=O)N1CCN(C(=O)OC(C)(C)C)CC1)n1cc(CCC(=O)O)nn1 | – | inconclusive: 7.08 µM [inhibitor, single point] |
| COCCn1c(=O)c(-c2ccc(Cl)cc2)nc2cnc(Oc3cccc(Cl)c3)nc21 | inactive: -5.52% | – |
| COC(=O)c1c(C)[nH]c(O)c1C=Nc1ccc(C#N)cc1 | inactive: -15.3% | – |
| O=C1CC(c2ccc(Cl)cc2)CC(=O)C1CS(=O)(=O)c1ccccc1 (centres undefined) | – | inconclusive: 39.8 µM [inhibitor, single point] |
| CCN(C(=O)c1cc2c(=O)[nH]c3ccc(C)cc3c2s1)c1ccc(F)cc1 | inactive: 0.327% | – |
| O=C(c1ccc(OC2CCN(CCc3ccccc3)CC2)cc1)N1CCCC(CCCO)C1 (centres undefined) | inactive: -2.92% | – |
| CSCC[C@H](NC(=O)CNC(=O)CNC(=O)[C@H](CO)NC(=O)[C@H](CCCNC(=N)N)NC(=O)[C@H](CO)NC(=O)[C@H](CC(C)C)NC(=O)[C@H](CC(C)C)NC(=O)CNC(=O)[C@H](C)NC(=O)[C@H](CC(C)C)NC(=O)[C@H](CCCNC(=N)N)NC(=O)[C@H](Cc1cnc[nH]1)NC(=O)[C@@H](NC(=O)[C@@H](N)C(C)C)[C@@H](C)O)C(=O)N[C@H](C(=O)N[C@@H](CCCCN)C(=O)N[C@@H](CO)C(=O)N[C@@H](CC(N)=O)C(=O)N[C@@H](Cc1ccccc1)C(=O)N[C@H](C(=O)N1CCC[C@H]1C(=O)N[C@H](C(=O)N[C@@H](CC(N)=O)C(=O)N[C@H](C(=O)NCC(=O)N[C@@H](CO)C(=O)N[C@@H](CCCCN)C(=O)N[C@@H](C)C(=O)N[C@@H](Cc1ccccc1)C(N)=O)C(C)C)[C@@H](C)O)C(C)C)C(C)C | inactive: -11.4% | – |
| COc1cccc(-n2c(SCC(=O)Nc3sc4c(c3C(N)=O)CCC4)nc3ccccc3c2=O)c1 | – | inconclusive: 39.8 µM [inhibitor, single point] |
| COCCCn1c(=O)c2ccccc2n(Cc2ccccc2C)c1=O | – | inconclusive: 0.631 µM [inhibitor, single point] |
| Cc1cc(C(=O)CSCCCn2c(=O)[nH]c3ccccc32)c(C)n1C | inactive: -6.01% | – |
| O=C(c1cnc2nc3ccccc3n2c1)c1cc(F)ccc1O | – | inconclusive: 39.8 µM [inhibitor, single point] |
| COc1cc(NC(=O)c2cccs2)c(OC)cc1NC(=O)Nc1ccc(F)cc1 | inactive: -1.8% | – |
| Cn1cc(CN2CCCCC2c2ccccn2)c(-c2ccc3c(c2)OCCO3)n1 (centres undefined) | – | inconclusive: 6.31 µM [inhibitor, single point] |
| O=C(O)CN1C(=O)/C(=C\c2cc(Br)ccc2OCc2ccc(Cl)cc2Cl)SC1=S | – | inconclusive: 25.1 µM [inhibitor, single point] |
| COC(=O)C(CC(C)C)NC(=O)c1cc(OC)c(OC)c(OC)c1 (centres undefined) | – | inconclusive: 28.2 µM [inhibitor, single point] |
